In PubChem BioAssay AID2685 (National Center for Advancing Translational Sciences (NCATS), 2010):
The other results are listed elsewhere or left out. Shown are side measurements of this screen, not its main read-out; they come without a call. The list favours compounds with an active or inconclusive main result. The note in brackets gives the kind of curve behind each potency; many fits are weak.

Experiment: qHTS Assay for Lipid Storage Modulators in Drosophila S3 Cells;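 as to cell number change: cells counted by Cell Tracker Red CMTPX staining in the red channel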
Settings: BODIPY lipid droplet fluorescence, 18-24 h; for cell number change: measured here: cell count max response, cells fed with added oleic acid
Method in brief: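 Drosophila S3 cells got compounds at several concentrations plus oleic acid (400 uM solution). Laser-scanning cytometry with 488 nm excitation read lipid droplets at 500-530 nm and cells at 575-640 nm. Percent activity was relative to 20 uM Triacsin C.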

[1] = measured here: lipid fluorescence (Fed channel) AC50, cells fed with added oleic acid
[2] = measured here: cell number channel AC50, cells fed with added oleic acid

Structure (SMILES) | AC50 [1] | cell number change [%] | AC50 [2]
CCCCC(=O)Nc1cccc(NC(=O)C(C)C)c1 | 4.11 µM [rising, partial curve] |  | 
CNc1nc(SCc2ccccc2)nc(N2CCOCC2)n1 | 3.66 µM [rising, partial curve] | 303 | 13 µM [rising, partial curve]
COc1cccc(-c2cc(=O)c3cc(NC(=O)c4ccc(N(C)C)cc4)ccc3[nH]2)c1 | 20.6 µM [falling, partial curve] | -53.9 | 25.9 µM [falling, partial curve]
S=c1[nH]nc(Cc2sc(-c3ccccc3)nc2-c2ccccc2)o1 |  |  | 6.51 µM [rising, single point]
Cc1cc(C)n(CCNC(=O)c2cc(COc3c(F)cccc3F)on2)n1 | 0.103 µM [falling, full curve, poor fit] | -15.9 | 
COc1ccc(S(=O)(=O)N2CCCCC2)cc1C(=O)N1CCCC1 | 8.2 µM [rising, partial curve] | 26.9 | 
COc1cc(/C=N/NC(=O)C(C)n2nnc3ccccc32)ccc1O (stereo not drawn) | 0.103 µM [rising, full curve, poor fit] |  | 
COc1ccccc1C(c1nnnn1CS(=O)(=O)c1ccc(C)cc1)N1CCSCC1 (stereo not drawn) | 5.17 µM [rising, partial curve] | -9.12 | 
O=C(Nc1cccnc1)Nc1ccc(F)c(Cl)c1 | 29.1 µM [rising, single point] | 3.2 | 2.91 µM [rising, single point]
CCc1ccc(N(C(=O)CNC(=O)c2cccs2)C(C(=O)NC(C)(C)C)c2cc(OC)c(OC)c(OC)c2)cc1 (stereo not drawn) | 2.06 µM [rising, partial curve] | 11.5 | 
CCOc1ccc(N2C(N)=NC(N)=NC2(C)C)cc1 | 23.1 µM [falling, single point] | -31.5 | 29.1 µM [falling, single point]
CC(C)c1ccc(Cc2nnc(NCCCO)[nH]c2=O)cc1 | 23.1 µM [rising, single point] | -7.75 | 
CCc1ccc(OCC(=O)NC(NC(=S)Nc2ccc(C)cc2C)C(Cl)(Cl)Cl)cc1 (stereo not drawn) | 18.4 µM [falling, partial curve] | -22.5 | 
CN(Cc1ccc(F)cc1Cl)S(=O)(=O)c1cccs1 | 10.3 µM [rising, partial curve] | -2.56 | 
Cc1ccc(-c2oc3ncnc(N)c3c2-c2ccc(C)cc2)cc1 | 0.58 µM [rising, single point] |  | 
Nc1ccc(C(=O)Nc2nc3ccccc3s2)cc1 | 0.731 µM [rising, partial curve] |  | 0.326 µM [rising, full curve, poor fit]
CCOc1ccc(CN(C)CC(=O)Nc2ccc3c(c2)CCC3)cc1OC | 29.1 µM [falling, single point] | -11.4 | 
Cc1nc(Cl)sc1C(=O)Nc1cc(F)cc(F)c1 |  | -16.4 | 
COc1ccc(CNC(=O)Nc2cccc(Cl)c2)cc1 |  | 14.5 | 
Cc1ccc(-c2oc3ccccc3c(=O)c2OCC(=O)O)cc1 |  | -33.7 | 1.16 µM [falling, full curve, poor fit]

Random excerpt: five records from the list, in no set order.
Structure (SMILES) | AC50 [1] | cell number change [%] | AC50 [2]
COc1ccccc1C(c1nnnn1CS(=O)(=O)c1ccc(C)cc1)N1CCSCC1 (stereo not drawn) | 5.17 µM [rising, partial curve] | -9.12 | 
CC(C)c1ccc(Cc2nnc(NCCCO)[nH]c2=O)cc1 | 23.1 µM [rising, single point] | -7.75 | 
Cc1cc(C)n(CCNC(=O)c2cc(COc3c(F)cccc3F)on2)n1 | 0.103 µM [falling, full curve, poor fit] | -15.9 | 
Cc1nc(Cl)sc1C(=O)Nc1cc(F)cc(F)c1 |  | -16.4 | 
Cc1ccc(-c2oc3ncnc(N)c3c2-c2ccc(C)cc2)cc1 | 0.58 µM [rising, single point] |  | 

More results follow:

Structure (SMILES) | AC50 [1] | cell number change [%] | AC50 [2]
O=C(CSC1=NCCS1)N1CCCCCC1 | 0.0058 µM [falling, full curve, poor fit] |  | 
CC(C)COc1ccc(C(=O)N/C(=C\c2cccc([N+](=O)[O-])c2)C(=O)OC(C)C)cc1 | 16.4 µM [falling, single point] | -10.8 | 
O=C(CCN=C1NS(=O)(=O)c2ccccc21)OCC(=O)c1ccc(F)c(F)c1 |  | -36.2 | 23.1 µM [falling, single point]
CCNc1ccc(Br)cc(C(=O)/C=C/c2ccc(Cl)cc2Cl)c1=O | 18.4 µM [falling, partial curve] | -59.5 | 16.4 µM [falling, partial curve]
O=C(NC1CCCCC1)NC1CC2CCC(C1)N2C(=O)NC1CCCCC1 (stereo not drawn) |  |  | 0.58 µM [falling, full curve, poor fit]
CCN(C(=O)CN1C(=O)S/C(=C\c2cccc(Cl)c2)C1=O)C1CCS(=O)(=O)C1 (stereo not drawn) | 0.146 µM [falling, full curve, poor fit] | -24.3 | 
COCCNc1ccc(N2C(=O)CCCC2=O)cc1[N+](=O)[O-] | 3.66 µM [rising, single point] | 9.92 | 
Cn1c(C(=O)OC(C(=O)NC2CCCC2)c2ccncc2)cc2sccc21 (stereo not drawn) | 0.731 µM [rising, partial curve] | -15.4 | 
O=C(COc1ccc2c3c(c(=O)oc2c1)CCC3)Nc1ccccn1 | 1.16 µM [falling, full curve, poor fit] | 0.567 | 
Cc1ccccc1CN1CCNC(=O)C1CC(=O)N(C)CCC1CCOCC1 (stereo not drawn) |  | 11.6 | 6.51 µM [rising, single point]
CC1CCN(C(=O)CCS(=O)(=O)c2cc3c(cc2Cl)NC(=O)CO3)CC1 |  | -7.49 | 
Cc1ccc(-n2c(-c3cccnc3)n[nH]c2=S)c(C)c1 | 0.259 µM [rising, full curve, poor fit] | 49 | 0.164 µM [rising, full curve, poor fit]
COc1ccc(C(=O)OCC(=O)NC2CCCCCC2)cc1OC | 6.51 µM [falling, single point] | -7.89 | 
Cc1csc(Nc2ccccc2)[n+]1-c1ccccc1 | 0.326 µM [falling, full curve] | -22.4 | 
COc1ccc(CNC(=O)C(=O)c2cn(CC(=O)N3CCOCC3)c3ccccc23)cc1 | 6.51 µM [rising, single point] | 8.55 | 
O=C(CN1CCc2ccccc2C1)Nc1cc(S(=O)(=O)N2CCOCC2)ccc1N1CCOCC1 | 3.66 µM [falling, partial curve] | 31.1 | 0.116 µM [rising, full curve, poor fit]
COc1ccc(NC(=O)c2nc(C)n(-c3ccc([N+](=O)[O-])cc3)n2)cc1 |  | 16.7 | 
COc1cc(CNc2ncc(-c3ccc(Br)cc3)n2C)cc(OC)c1O | 6.51 µM [rising, single point] | -0.587 | 
CCN1CCN(c2c(Cl)cccc2NC(=O)c2cccs2)CC1 | 16.4 µM [falling, single point] | 8.65 | 
CCOc1ccc(S(=O)(=O)NCCC(=O)NCCOc2ccccc2OC)cc1 | 7.31 µM [rising, partial curve] | 27.4 | 

Structure (SMILES) | AC50 [1] | cell number change [%] | AC50 [2]
Cc1ccc(NC(=O)CC2SCCNC2=O)cc1Cl (stereo not drawn) | 29.1 µM [rising, single point] | 14.3 | 
Cc1ccccc1NC(=O)c1ccno1 |  | 2.63 | 
CNC(=S)N/N=C(\C)c1ccc2c(c1)OCO2 |  |  | 3.66 µM [rising, single point]
O=C(NCc1cccc(Cl)c1)c1cccnc1 |  | 10.5 | 
CCO[C@@H]1OC(C(=O)NCc2ccccc2)=C[C@H](C(C)(C)C)[C@H]1CCCO | 0.0164 µM [rising, full curve, poor fit] | 1.43 | 
CN(CC(=O)Nc1ccc(F)c(F)c1F)C(=O)c1ccc(=O)[nH]c1 | 0.58 µM [falling, single point] | 17.3 | 
COc1ccc(C(C)=O)cc1COC(=O)CCCN1C(=O)c2ccccc2C1=O | 29.1 µM [falling, single point] | -30.3 | 32.6 µM [falling, single point]
Cn1nc(-c2ccc(N3CCCCC3)c(NC(=O)c3ccco3)c2)c2ccccc2c1=O |  |  | 5.17 µM [rising, partial curve]
COc1cccc(C(=O)NCc2ccc3c(c2)OCO3)c1 | 23.1 µM [rising, single point] | 7.37 | 
O=C(O)c1cccc(N2C(=O)c3cc([N+](=O)[O-])cc4cc([N+](=O)[O-])cc(c34)C2=O)c1 |  | -65.6 | 23.1 µM [falling, single point]
CC(C)Cc1n[nH]c(=O)c2c1nnn2Cc1ccccc1F | 29.1 µM [rising, single point] | 31.9 | 
COc1ccc(-c2nn(CC(=O)NCCc3ccccc3)c(=S)n2C)cc1 | 3.66 µM [rising, full curve] | 17.8 | 
COc1ccc(/C(O)=C2\C(=O)C(=O)N(c3cc(C)on3)C2c2cccc(OC)c2OC)cc1C (stereo not drawn) | 29.1 µM [falling, single point] | 6.66 | 
Cc1ccc(-c2csc(N(CCCN3CCOCC3)C(=O)c3ccco3)n2)cc1 |  |  | 3.26 µM [rising, partial curve, poor fit]
Cc1nc(N(C)Cc2ccccc2)c2c(C)c(C)sc2n1 | 0.92 µM [falling, full curve, poor fit] |  | 
CN(c1ccccc1)c1cc(=O)[nH]c(=O)[nH]1 | 0.731 µM [falling, full curve] | -24.7 | 0.731 µM [falling, full curve, poor fit]
O=C(CN1CCN(c2ccccc2O)CC1)NC(=O)NCc1ccccc1 |  | -0.778 | 
CCN(CC)CCNC(=O)CNC(=O)c1nn(-c2ccc(OC)c(OC)c2)c(=O)c2ccccc12 | 6.51 µM [falling, single point] | -20.7 | 0.103 µM [falling, full curve, poor fit]
Cc1cccc(Nc2ncnc3onc(-c4cccc(Cl)c4)c23)c1 |  | 17.8 | 
Cc1ccc(NC(=O)C2COc3ccccc3O2)nc1 (stereo not drawn) | 23.1 µM [rising, single point] | 102 | 29.1 µM [rising, single point]
